Experimental findings from PMC5986867 are described below.

Amino acid sequences for entries named in this document (tags omitted).
UniProt P17096: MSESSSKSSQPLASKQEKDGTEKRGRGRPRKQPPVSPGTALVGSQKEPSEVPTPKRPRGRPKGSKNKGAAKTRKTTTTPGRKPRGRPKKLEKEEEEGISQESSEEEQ
UniProt Q12778: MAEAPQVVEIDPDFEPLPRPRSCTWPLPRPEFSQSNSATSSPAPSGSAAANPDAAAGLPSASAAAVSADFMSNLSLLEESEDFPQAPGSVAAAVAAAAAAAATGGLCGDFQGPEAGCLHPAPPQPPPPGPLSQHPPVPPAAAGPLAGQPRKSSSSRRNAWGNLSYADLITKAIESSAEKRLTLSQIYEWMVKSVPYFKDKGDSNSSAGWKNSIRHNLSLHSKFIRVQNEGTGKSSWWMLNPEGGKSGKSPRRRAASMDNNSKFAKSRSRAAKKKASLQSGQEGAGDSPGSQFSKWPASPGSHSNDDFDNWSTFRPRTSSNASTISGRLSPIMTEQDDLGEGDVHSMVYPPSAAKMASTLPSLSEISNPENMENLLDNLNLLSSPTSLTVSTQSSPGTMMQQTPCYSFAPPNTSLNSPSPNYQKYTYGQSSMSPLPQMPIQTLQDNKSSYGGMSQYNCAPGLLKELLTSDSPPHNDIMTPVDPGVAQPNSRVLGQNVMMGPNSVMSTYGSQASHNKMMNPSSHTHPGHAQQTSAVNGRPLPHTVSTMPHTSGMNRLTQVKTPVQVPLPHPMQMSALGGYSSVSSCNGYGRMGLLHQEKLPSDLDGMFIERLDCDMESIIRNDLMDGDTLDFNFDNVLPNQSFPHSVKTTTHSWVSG
UniProt Q9R1E0: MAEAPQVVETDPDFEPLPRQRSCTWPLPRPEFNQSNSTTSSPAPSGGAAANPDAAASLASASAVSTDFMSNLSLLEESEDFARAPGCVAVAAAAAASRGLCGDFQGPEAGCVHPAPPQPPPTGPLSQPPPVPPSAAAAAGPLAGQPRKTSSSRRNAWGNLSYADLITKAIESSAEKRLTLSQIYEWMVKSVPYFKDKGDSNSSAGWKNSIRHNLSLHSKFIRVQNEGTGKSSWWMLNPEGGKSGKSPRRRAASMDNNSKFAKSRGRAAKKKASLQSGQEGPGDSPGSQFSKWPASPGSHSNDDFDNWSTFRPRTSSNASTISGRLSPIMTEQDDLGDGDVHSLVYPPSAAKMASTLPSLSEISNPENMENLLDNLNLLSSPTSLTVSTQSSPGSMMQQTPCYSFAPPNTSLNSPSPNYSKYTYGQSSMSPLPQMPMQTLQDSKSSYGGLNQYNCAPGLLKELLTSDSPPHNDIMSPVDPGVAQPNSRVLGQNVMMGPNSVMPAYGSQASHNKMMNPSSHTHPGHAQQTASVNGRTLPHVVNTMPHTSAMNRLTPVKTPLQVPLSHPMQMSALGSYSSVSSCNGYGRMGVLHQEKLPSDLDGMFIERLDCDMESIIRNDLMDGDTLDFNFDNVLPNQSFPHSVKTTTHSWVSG

These are yes or no findings as the source states them, for the method shown. In cells and extracts the contact can be indirect. Some binding calls cover weakened binding; strength is not graded here.

One experiment addresses YFP-HMGA1a (human) (UniProt P17096). Description: FRET or BRET; FRET between YFP-HMGA1 and CFP-FoxO1 in living serum-starved HEK-293 cells, confocal microscopy. In general terms: Bioluminescence resonance energy transfer reports proximity on the nanometre scale.
In experiment [1] the target is HMGA1 (endogenous, HepG2 nuclear extract) (human (endogenous in HepG2)) (UniProt P17096). Description: co-IP; HepG2 nuclear extract (500 µg); anti-HMGA1 antibody covalently coupled to protein A beads, 3 h at 4 °C, NETN wash buffer (150 mM NaCl, 0.1% NP-40); immunoblot for FoxO1.
Experiment [2] has as its target T1, HMGA1 (endogenous, mouse liver extract) (mouse (endogenous in liver)) (UniProt P17095).
T1 sequence: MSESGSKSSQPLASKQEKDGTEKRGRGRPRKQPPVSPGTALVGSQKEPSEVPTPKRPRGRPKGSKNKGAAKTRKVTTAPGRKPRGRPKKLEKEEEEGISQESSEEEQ
Description: co-IP; liver extracts from wild-type mice; data not shown.

In experiment [3] the target is GST tagged human HMGA1 (human) (UniProt P17096). Description: pull-down; GST-HMGA1 affinity resin or GST alone; in vitro-translated 35S-labeled FoxO1 retained, SDS-PAGE; in the absence of chromatin/DNA; only the target purified.

As to CFP-FoxO1 (from UniProt Q12778 1-655), in the experiment with YFP-HMGA1a (human), the binding entry is given as “binds”. For “FoxO1 (endogenous, HepG2 nuclear extract) (from UniProt Q12778 1-655)”, the binding entry in experiment [1] is reported as “binds”.

Take “FoxO1 (endogenous, mouse liver extract) (from UniProt Q9R1E0 1-652)”: in experiment [2], the binding entry is listed as “binds”.

Consider “in vitro-translated 35S-labeled FoxO1 (from UniProt Q12778 1-655)”, for which the binding result in experiment [3] is on record as “binds”.
